The values below come from patent US20180094059A1.

Results are given in words; binding and its absence hold for the method and conditions named. Some entries that bind do so weakly or less than the wild type.

The target in one assay is T1, OPG-Fc (human) (UniProt O00300).
T1 sequence (looked up): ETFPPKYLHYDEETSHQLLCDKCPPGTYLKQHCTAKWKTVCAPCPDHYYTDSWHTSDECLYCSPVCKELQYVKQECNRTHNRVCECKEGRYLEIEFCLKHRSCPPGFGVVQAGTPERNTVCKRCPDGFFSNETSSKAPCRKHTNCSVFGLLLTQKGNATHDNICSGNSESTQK
Kind of assay: ELISA, coated OPG-Fc (3 µg/ml), anti-Flag-HRP detection.

In another assay the target is T2, DcR1-Fc (human) (UniProt O14798).
T2 sequence (looked up): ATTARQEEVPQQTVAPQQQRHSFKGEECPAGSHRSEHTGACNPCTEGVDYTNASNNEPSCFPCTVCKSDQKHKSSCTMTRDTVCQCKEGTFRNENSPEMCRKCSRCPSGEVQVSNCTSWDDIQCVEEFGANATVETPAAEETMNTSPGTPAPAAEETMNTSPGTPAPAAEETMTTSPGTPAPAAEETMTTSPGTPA
Put plainly: ELISA, coated DcR1-Fc (3 µg/ml), anti-Flag-HRP detection.

B1: Db10-Glyco-scTRAIL3-FAVSGAA (protein)
chain: LEASDYKDDDDKGAEVQLVESGGGLVQPGGSLRLSCAASGFSLTNYGVHWVRQAPGKGLEWLGVIWSGGNTDYNTPFTSRFTISRDNSKNTLYLQMNSLRAEDTAVYYCARALTYYDYEFAYWGQGTTVTVSSGGGGSGGGGSDIQLTQSPSFLSASVGDRVTITCRASQSIGTNIHWYQQKPGKAPKLLIKYASESISGVPSRFSGSGSGTEFTLTISSLQPEDFATYYCQQNNNWPTTFGAGTKLEIKRAAAGNGTSNGTSEFGGAAAHITGTRGRSNTLSSPNSKNEKALGRKINSWESSRSGHSFLSNLHLRNGELVIHEKGFYYIYSQTYFRFQEEIKENTKNDKQMVQYIYKYTSYPDPILLMKSARNSCWSKDAEYGLYSIYQGGIFELKENDRIFVSVTNEHLIDMDHEASFFGAFAVSGAAAHITGTRGRSNTLSSPNSKNEKALGRKINSWESSRSGHSFLSNLHLRNGELVIHEKGFYYIYSQTYFRFQEEIKENTKNDKQMVQYIYKYTSYPDPILLMKSARNSCWSKDAEYGLYSIYQGGIFELKENDRIFVSVTNEHLIDMDHEASFFGAFAVSGAAAHITGTRGRSNTLSSPNSKNEKALGRKINSWESSRSGHSFLSNLHLRNGELVIHEKGFYYIYSQTYFRFQEEIKENTKNDKQMVQYIYKYTSYPDPILLMKSARNSCWSKDAEYGLYSIYQGGIFELKENDRIFVSVTNEHLIDMDHEASFFGAFAVS
modifications: glycosylated connecting peptide
B1: the binding result with OPG-Fc (human) and with DcR1-Fc (human) was “binds” throughout.
